Here are results for one substance from US11752211B2 (NOVARTIS AG, priority 2014, dated 2023).

A short description of this data set: general procedure: Fmoc solid-phase peptide synthesis; 2-chlorotrityl chloride resin; Phenethylamine-AMEBA resin; HATU/DIEA. The following applies: late stage modification step, TFA salt; acetate.

With “pE-R—P—R-L-C*—H—N—[[(1α,8α,9α)-bicyclo[6.1.0]non-4-yn-9-ylmethoxy]carbonyl]-K-G-P-Nle-C*—F—OH(Disulfide C^6-C^12)”, the step yield is recorded as 61%.
